Data published in patent publication US20090298197.

Test system: beta-thrombin
Assay: binding assay
Conditions: 5' thiol-(CH2)6, 3' (CH2)7-TAMRA, assembled on Au/Ag nanowires; partial signal relative to alpha-thrombin; nanowire fluorescence beacon; purified native …; label: TAMRA 3'; single-stranded DNA

TGGTTGGTGTGGTTGG [THR Apt3]
binding result: binds more weakly

The exact form of at least one protein or probe is not confirmed. Weaker means in comparison with the reference protein, sequence or condition of that experiment.
